Measurements published in PubChem BioAssay AID652054 (National Center for Advancing Translational Sciences (NCATS), 2013).
In all, about 360,000 compounds went through this assay and about 9,100 (2.5%) were called active. Inconclusive results, whose numbers are uncertain, are shown with a selection of clear calls. Rule as the data show it: active = max response below about -50%; inconclusive = no clear call, values can overlap the other calls; inactive = above that.

The chains behind the UniProt entries cited, without tags or fusion partners.
UniProt P35462, whole entry, looked up: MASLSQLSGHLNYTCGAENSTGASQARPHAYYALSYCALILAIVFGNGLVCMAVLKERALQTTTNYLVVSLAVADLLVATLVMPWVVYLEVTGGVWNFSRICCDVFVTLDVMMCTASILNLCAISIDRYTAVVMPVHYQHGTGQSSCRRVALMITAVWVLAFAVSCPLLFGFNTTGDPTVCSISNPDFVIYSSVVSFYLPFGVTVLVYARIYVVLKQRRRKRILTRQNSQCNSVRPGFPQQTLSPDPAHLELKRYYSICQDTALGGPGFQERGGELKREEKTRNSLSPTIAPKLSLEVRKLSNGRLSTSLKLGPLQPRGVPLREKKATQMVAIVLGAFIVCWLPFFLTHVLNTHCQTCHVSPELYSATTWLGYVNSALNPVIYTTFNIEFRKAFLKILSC

Each compound was assayed against D(3) dopamine receptor (Homo sapiens) (UniProt P35462) (assay: qHTS of D3 Dopamine Receptor Antagonist: qHTS). Conditions: D3R cells, DiscoveRx beta-arrestin luminescence, antagonist mode; hits give low values.
In short: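 Cells plated overnight at 1500 cells/well, then exposed to library compounds with dopamine controls for 90 minutes at 37 degrees C. DiscoveRx reagent added for 30–60 minutes at room temperature; luminescence read, quantitative HTS format.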
% is scaled to controls: 0 for no effect and ±100 for the full control effect.

Max response, negative = inhibition, inactive:
COc1ccc(C(=O)C(C)OC(=O)CNC(=O)c2ccco2)cc1 (configuration not stated) -5.48%, Clc1cccc(C2Nc3cccc4cccc(c34)N2)c1 0.542%, CCn1nc(C)cc1C(=O)Sc1ccc(Cl)cc1Cl -24.6%, O=C(c1ccco1)N1CCN(c2ncnc3c2[nH]c2ccc(Br)cc23)CC1 26%, COC(=O)c1cccc2c1-c1ccccc1/C2=N\NC(N)=O 4.74%, COc1ccc(/C=N/NC(=O)c2cc3cc(OC)c(OC)cc3[nH]2)cc1 16.2%, O=C(CCn1c(=O)sc2ccccc21)NC1=NCCS1 16.4%, N#Cc1ccc(COC(=O)c2ccc3c(c2)OCO3)cc1 -3.84%, CC(C)Nc1nc(NCc2ccccc2)c2sccc2n1 5.25%, Cc1ccc(C2C3=C(CC(C)(C)CC3=O)NC3=C2C(=O)c2ccccc23)cc1 (configuration not stated) -15.3%, CCn1c(CNc2cccc(Cl)c2)nnc1SCC(=O)OC1CCCCC1 10.7%, C=CCNC(=S)N1CCc2[nH]c3ccccc3c2C1 -14.7%, O=C(NCc1ccccn1)c1cc2cc(Br)ccc2oc1=O 14.7%, O=c1[nH]c(Nc2ccccc2)cc2cc(Br)ccc12 -22.4%, Cn1c(C(=O)NCCN2CCOCC2)cc2c(=O)n(C)c3ccccc3c21 -1.11%, Fc1cc2[nH]c(=S)[nH]c2c(Br)c1N1CCSCC1 -19.3%, COc1ccc(S(=O)(=O)Nc2ccccc2C(=O)NCc2cccnc2)cc1C -3.67%, O=C(Nc1ccccc1)N1CCN(Cc2ccc(Cl)cc2)CC1 9.9%, O=C(Cn1nc(C(F)F)cc1C(F)F)N/N=C/c1ccc2c(c1)OCO2 13.2%, CC(C)CN(C(=O)CCCSc1nc2ccccc2[nH]1)c1c(N)n(Cc2ccccc2)c(=O)[nH]c1=O 13.6%, Nc1c(C(=O)N/N=C/c2cccnc2)oc2nc(-c3ccccc3)cc(-c3ccco3)c12 57.2%

Max response, negative = inhibition, inconclusive:
CCC1Nc2ccccc2-c2nnc(SC)nc2O1 (configuration not stated) -33.7%, Cc1c(N=Cc2c(O)n(C3CCCCC3)c(=O)[nH]c2=O)c(=O)n(-c2ccccc2)n1C -37.2%, Cc1ccc(C)c(NS(=O)(=O)c2cc(C(=O)Nc3ccccc3-c3ccccc3)ccc2Cl)c1 -41.5%, CCOC(=O)c1sc(C)c2c(=O)n(CCCN3CCOCC3)cnc12 -39.9%, COC(=O)CSCC(=O)Nc1cc2c(cc1C(C)=O)OCO2 -38.6%, Clc1ccccc1OCCCCN1CCNCC1 -37.1%, COc1ccc(OCCN2CCC(C(=O)NC(c3ccc(Cl)cc3)c3cnccn3)CC2)cc1 (configuration not stated) -40.3%, CC(C)c1nnc(NC(=O)CCS(=O)(=O)c2nc(-c3cccs3)cc(C(F)(F)F)n2)s1 -40.7%, N#C/C(=C/c1cn(CC(=O)O)c2ccccc12)C(=O)NCc1ccccc1 -35.6%, CC12CN(C(=O)c3ccc([N+](=O)[O-])cc3)CC(C)(CN(C(=O)c3ccc([N+](=O)[O-])cc3)C1)C2=O -32.1%, CCc1cccc(CC)c1NC(=O)c1cccc(S(=O)(=O)N2CCN(C)CC2)c1 -46.1%, CCc1nc2cc(NC(=O)C3(C)CCCN(C(C)C)C3)ccc2o1 (configuration not stated) -43.2%, Cc1ccccc1C(=O)/C(C#N)=N/Nc1c(C)n(C)n(-c2ccccc2)c1=O -45%, COc1ccc(Cl)cc1-c1cc(C(=O)NCc2ccc(C(F)(F)F)cc2)[nH]n1 -43%, CCOc1cc(/C=N/Nc2nnc(C)n2N)ccc1OC(C)=O -33.1%, Cc1ccc2[nH]c(C(=O)O)c(-c3ccccc3)c2c1 -38.9%, COc1ccc2nc(N=NC3=C(O)CC(C)(C)CC3=O)sc2c1 -35.6%, Cc1nnsc1C(=O)NC1CCCCC1 -43.8%, COc1ccc(Cl)cc1NC(=O)CN(C)C(=O)/C=C/c1ccco1 -35.7%, Cc1noc(C)c1S(=O)(=O)Nc1ccc2c(c1)CC(=O)N([C@H](C)CO)C[C@H](C)[C@@H](CN(C)CC1CC1)O2 -30%, CCCCn1[nH]c(-c2ccccc2)cc1=O -49.9%, N=c1c(C(=O)NCc2ccc(F)cc2)cc2c(=O)n3ccccc3nc2n1Cc1ccco1 -35.3%, O=C(O)c1ccc(-c2ccc(/C=N/Nc3ccc([N+](=O)[O-])cc3)o2)cc1 -30.8%, CCOc1ccccc1C1C(C#N)=C(N)SC(N)=C1C#N -36.3%, Nc1nonc1-c1nc2ccccc2n1CC(=O)N/N=C\c1ccc(-c2ccc(Cl)cc2)o1 -47.1%

Max response, negative = inhibition, active:
Cc1c(NC(=O)c2ccc(N3CCCC3)c([N+](=O)[O-])c2)cccc1-c1nc2ccccc2s1 -51.4%, CC1CCN(c2ccc([N+](=O)[O-])c(SCCO)c2)CC1 -51.8%, CCn1c(CN2CCC(C)CC2)nc2cc(S(=O)(=O)N3CCCCC3)ccc21 -83.1%, COc1ccc(C2/C=C\CN(C(=O)C3CCCC3)[C@H](Cc3ccccc3)C(=O)N2Cc2ccc(F)cc2)cc1 (some centres not stated) -67.6%, CSc1ccc(CN(C)CC(=O)Nc2ccc(C)cc2Br)cc1 -55.6%, COc1nccnc1NS(=O)(=O)c1ccc(NC(=S)NC(=O)c2ccc(F)cc2)cc1 -64.7%, c1ccc(CCN(Cc2ccccc2)C2CCN(C3CCCC3)CC2)cc1 -65.2%, N#Cc1cc(-c2ccc(Cl)cc2)cn(Cc2c(Cl)cccc2Cl)c1=O -50.3%, COc1ccc(CN2C3CCCC2CC(NC(=O)Nc2ccccc2)C3)cc1 (configuration not stated) -63.8%, CC1CCN(CCC(=O)Nc2ccc3c(c2)CCC3)CC1 -58.6%, CCOC(=O)c1c(NC(=O)Cc2ccccc2)sc2c1CCN(CC)C2 -64.2%
